Values joined by “and” are separate entries in the source; they are usually repeats but may differ in a detail not shown here. Identical values can stand only once. The list shows a part of the results. Repeats in this data set agree poorly, so a single value says little.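 HEK293T cells were given each compound shortly before transfection with a reporter in which red mCherry is followed by the SARS-CoV-2 frameshift element and then GFP in the −1 frame, so GFP appears only after frameshifting.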
tested on: HEK293T; test: percent viability (nuclei count) relative to control; higher = more viable cells; conditions: 10 µM; 24 h

Row | SMILES | percent viability
1 | CCCOc1ccccc1-c1nc2[nH]nnc2c(=O)[nH]1 [Zaprinast] | 244%
2 | Cc1ncc([N+](=O)[O-])n1CC(C)O (stereo not given) [secnidazole] | 321% and 255%
3 | N[C@@H](Cc1ccc(O)c(O)c1)C(=O)O [levodopa] | 93.4% and 106%
4 | CCCCNc1ccc(C(=O)OCCN(C)C)cc1 [tetracaine] | 127%
5 | C=CCN1CCCC1CNC(=O)c1cc2nn[nH]c2cc1OC (stereo not given) [alizapride] | 197%
6 | CCCc1nc(C)c2c(=O)nc(-c3cc(S(=O)(=O)N4CCN(CC)CC4)ccc3OCC)[nH]n12 [vardenafil] | 238%
7 | CC1(NC2=NS(=O)(=O)c3sc(Cl)cc3N2)CC1 | 155%
8 | NC(=O)COC(=O)c1ccccc1Nc1cccc(C(F)(F)F)c1 [colfenamate] | 265%
9 | C/N=C(/NC#N)NCCSCc1csc(NC(=N)N)n1 [Tiotidine] | 172%
10 | C/C(=C\c1csc(C)n1)[C@@H]1C[C@@H]2O[C@]2(C)CCC[C@H](C)[C@H](O)[C@@H](C)C(=O)C(C)(C)[C@@H](O)CC(=O)N1 [ixabepilone] | 13.1%
11 | C=C1CCO[C@]2([C@@H](O)[C@@](C)(O)CO)NC(=O)[C@@]1(O)NC2=O [bicozamycin] | 182%
12 | N=C(N)NCCC[C@H](N)C(=O)O [arginine] | 180% and 252%
13 | O=C(O)CCNC(=O)c1ccccc1 [betamipron] | 308%
14 | O=S(=O)(O)CCS [mesna] | 108%
15 | CCN(CC)CCNc1ccc(C)c2sc3ccccc3c(=O)c12 [lucanthone] | 255%
16 | CC(C)(Oc1ccc(Cl)cc1)C(=O)O [Clofibric acid] | 120%
17 | CC1(C)S[C@@H]2[C@H](NC(=O)[C@H](C(=O)O)c3ccsc3)C(=O)N2[C@H]1C(=O)O [ticarcillin] | 159%
18 | CC(=O)OCC(=O)[C@@]1(O)CC[C@H]2[C@@H]3CCC4=CC(=O)CC[C@]4(C)[C@@]3(F)[C@@H](O)C[C@@]21C | 126%
19 | NC(=O)c1ncn([C@@H]2O[C@H](CO)[C@@H](O)[C@H]2O)c1O [mizoribine] | 170%
20 | C[C@]12CCC(=O)C=C1CC[C@@H]1[C@@H]2[C@@H](O)C[C@@]2(C)[C@H]1CC[C@]2(O)C(=O)COP(=O)(O)O | 145%

Row | SMILES | percent viability
21 | C[C@@H](O)[C@H]1C(=O)N2C(C(=O)O)=C(SCCN=CN)C[C@H]12 | 163%
22 | O=C(O)Cn1cc(I)c(=O)c(I)c1 [diodone] | 110%
23 | CC(CC(=O)c1ccc(-c2ccccc2)cc1)C(=O)O (stereo not given) [metbufen] | 118%
24 | Cc1c(NC(C)C)c(=O)n(-c2ccccc2)n1C [ramifenazone] | 44.3%
25 | CC1COc2c(N3CCN(C)CC3)c(F)cc3c(=O)c(C(=O)O)cn1c23 (stereo not given) [ofloxacin] | 373% and 186%
26 | Oc1c(Cl)cc(Cl)cc1Sc1cc(Cl)cc(Cl)c1O | 315%
27 | O=C(O)C1CSC(C(=O)O)N1 (stereo not given) [tidiacic] | 147%
28 | CC(C)(Oc1ccc(C2CCCc3ccccc32)cc1)C(=O)O (stereo not given) [nafenopin] | 129%
29 | Nc1nc(=O)n([C@@H]2O[C@H](CO)[C@@H](O)[C@@H]2F)cc1I [fiacitabine] | 183%
30 | C[C@@H]1C/C=C/C=C/C=C/C=C/[C@H](O[C@@H]2O[C@H](C)[C@@H](O)[C@H](N)[C@@H]2O)C[C@@H]2O[C@](O)(C[C@@H](O)C[C@H]3O[C@@H]3/C=C/C(=O)O1)C[C@H](O)[C@H]2C(=O)O [Pimaricin] | 243%
31 | CC(=O)OCC(=O)[C@@]1(O)[C@H](OC(C)=O)C[C@H]2[C@@H]3CCC4=CC(=O)C=C[C@]4(C)[C@@]3(F)[C@@H](O)C[C@@]21C | 114%
32 | Cc1c(C)c2c(c(C)c1O)CCC(C)(COc1ccc(CC3SC(=O)NC3=O)cc1)O2 (stereo not given) [troglitazone] | 251%
33 | NS(=O)(=O)c1cc2c(cc1Cl)N=CNS2(=O)=O | 171%
34 | CCOc1ccccc1C(N)=O [ethenzamide] | 227%
35 | CC(C)S(=O)(=O)n1c(N)nc2ccc(/C(=N/O)c3ccccc3)cc21 [enviroxime] | 457%
36 | CC(CC(c1ccccc1)c1ccccc1)NC(C)(C)C (stereo not given) [terodiline] | 64.4%
37 | Cc1ccc(-n2[nH]c(C)c(N=Nc3cccc(-c4cccc(C(=O)O)c4)c3O)c2=O)cc1C [eltrombopag] | 135%
38 | Nc1nc2c(ncn2COCCO)c(=O)[nH]1 [Acycloguanosine] | 279%
39 | CN(C)CCc1c[nH]c2ccc(CS(=O)(=O)N3CCCC3)cc12 [almotriptan] | 185%
40 | OCc1ccccc1O[C@@H]1O[C@H](CO)[C@@H](O)[C@H](O)[C@H]1O | 372%

— the supplement of paper PMC8256030
